From the supplement of paper PMC9233669
This sample is rich in variants without activity.

Tests used:
biotinyl-Ile-oxazolone = test: self-aminoacylation, catalytic enhancement (BIO) (fold over background); higher = more active; k-Seq, kA / k0A0; sequences stand for … in GGGAAUGGAUCCACAUCUACGAAUUC…UUCACUGCAGACUUGACGAAGCUG
Method in brief: (§1)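 Catalytic enhancement equals the median kA over the uncatalyzed rate, the latter read from the low-activity peak of a bimodal Gaussian fit. Values of kA came from fitting each sequence's fraction reacted to a pseudo-first-order model, with 1000 bootstraps. Reacted RNA was captured with streptavidin and quantified by triplicate qPCR and Illumina sequencing after 90 minutes at room temperature with 2–1250 μM biotinyl-aminoacyl-oxazolone and 0.43 μM mutagenized RNA pools bearing a 21-nt variable region.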

biotinyl-Trp-oxazolone = test: self-aminoacylation, catalytic enhancement (BWO) (fold over background); higher = more active; k-Seq, kA / k0A0; sequences stand for … in GGGAAUGGAUCCACAUCUACGAAUUC…UUCACUGCAGACUUGACGAAGCUG
Method in brief: as §1

biotinyl-Val-oxazolone = test: self-aminoacylation, catalytic enhancement (BVO) (fold over background); higher = more active; k-Seq, kA / k0A0; sequences stand for … in GGGAAUGGAUCCACAUCUACGAAUUC…UUCACUGCAGACUUGACGAAGCUG
Method in brief: as §1

biotinyl-Leu-oxazolone = test: self-aminoacylation, catalytic enhancement (BLO) (fold over background); higher = more active; k-Seq, kA / k0A0; sequences stand for … in GGGAAUGGAUCCACAUCUACGAAUUC…UUCACUGCAGACUUGACGAAGCUG
Method in brief: as §1

biotinyl-Met-oxazolone = test: self-aminoacylation, catalytic enhancement (BMO) (fold over background); higher = more active; k-Seq, kA / k0A0; sequences stand for … in GGGAAUGGAUCCACAUCUACGAAUUC…UUCACUGCAGACUUGACGAAGCUG
Method in brief: as §1

| Sequence | self-aminoacylation (biotinyl-Ile-oxazolone) | self-aminoacylation (biotinyl-Trp-oxazolone) | self-aminoacylation (biotinyl-Val-oxazolone) | self-aminoacylation (biotinyl-Leu-oxazolone) | self-aminoacylation (biotinyl-Met-oxazolone) |
| --- | --- | --- | --- | --- | --- |
| AAAUUUGCUAAUAGUCGGAAG [Fam3.1 aminoacylation ribozyme variant] | 0.986 | 1.84 | 1.12 | 1.13 | 0.851 |
| AAGAUUGCAAAUAGUCGCAAG [Fam3.1 aminoacylation ribozyme variant] | 1.43 | 2.48 | 1.29 | 1.58 | 1.27 |
| AAGCUUGCUUAUAGUCGCAAG [Fam3.1 aminoacylation ribozyme variant] | – | 1.56 | 1.68 | 1.71 | 1.36 |
| AGUCACCUAGGUCAUCAGGUG [Fam2.2 aminoacylation ribozyme variant] | 1.61 | 1.82 | – | – | 1.96 |
| AUACACCUAGGUCAUCGGCUG [Fam2.2 aminoacylation ribozyme variant] | 1.86 | 1.28 | 1.54 | – | – |
| AUGACCCUGGUCAUCGAGGGA [Fam2.1 aminoacylation ribozyme variant] | 1.92 | 1.82 | 1.66 | – | – |
| AUUCACCUACGUCAUCGGGGG [Fam2.2 aminoacylation ribozyme variant] | 1.58 | 1.77 | – | – | 1.86 |
| AUUCACCUAGAUAAUCGGGUG [Fam2.2 aminoacylation ribozyme variant] | 1.39 | 1.95 | 1.37 | – | – |
| AUUCACCUAGCUGAUCGGGUG [Fam2.2 aminoacylation ribozyme variant] | – | 1.97 | – | – | 1.91 |
| AUUCUCCUAGGUCAUCGGCUG [Fam2.2 aminoacylation ribozyme variant] | – | 1.72 | – | – | – |
| CCACAACUCAAGCAAUCGGUC [Fam1B.1 aminoacylation ribozyme variant] | 1.81 | 1.97 | – | 1.61 | 1.48 |
| CCACACUUCGAGCAAUCGGGC [Fam1B.1 aminoacylation ribozyme variant] | 1.66 | 1.62 | 1.99 | – | 1.84 |
| CUACACUUCAAGGAAUCGGUC [Fam1B.1 aminoacylation ribozyme variant] | 0.91 | – | 0.887 | 0.984 | 0.883 |
| CUACUGCAAACAAUCGGCCUG [Fam1A.1 aminoacylation ribozyme variant] | 1.59 | – | 2.27 | 2.27 | 2.1 |
| CUACUGCAAACAUUCGGUCUG [Fam1A.1 aminoacylation ribozyme variant] | – | 1.85 | 1.99 | 1.96 | 1.79 |
| CUACUUAAAACAAUCGGUCCG [Fam1A.1 aminoacylation ribozyme variant] | 0.878 | – | 0.835 | 0.908 | 1.12 |
| CUACUUCAAACAAUCAGACUG [Fam1A.1 aminoacylation ribozyme variant] | 0.584 | – | 0.656 | 0.631 | 0.54 |
| CUACUUCAAACAAUCGGUGUG [Fam1A.1 aminoacylation ribozyme variant] | 0.982 | – | 0.994 | 1.3 | 1.11 |
| CUACUUCAAACCAUCGGUGUG [Fam1A.1 aminoacylation ribozyme variant] | 1.08 | – | 1.1 | 1.52 | 1.11 |
| CUACUUCAAAUAAUCGGUCUG [Fam1A.1 aminoacylation ribozyme variant] | 0.898 | – | 0.864 | 1.05 | 0.836 |
| CUACUUCAACCAAGCGGUCUG [Fam1A.1 aminoacylation ribozyme variant] | 1.02 | – | 0.954 | 0.942 | 0.907 |
| CUACUUCAACCAAUCGGUCUA [Fam1A.1 aminoacylation ribozyme variant] | 1.02 | – | 0.994 | 0.86 | 0.853 |
| CUACUUCAACCAAUCGGUUUG [Fam1A.1 aminoacylation ribozyme variant] | 0.834 | – | 1.07 | 1.06 | 0.867 |
| CUACUUCAAUCAAUCGGACUG [Fam1A.1 aminoacylation ribozyme variant] | 0.717 | – | 0.678 | 0.599 | 0.691 |
| CUACUUCAAUCAAUCGGCCUG [Fam1A.1 aminoacylation ribozyme variant] | 1.64 | – | 1.74 | 2.56 | 1.41 |

| Sequence | self-aminoacylation (biotinyl-Ile-oxazolone) | self-aminoacylation (biotinyl-Trp-oxazolone) | self-aminoacylation (biotinyl-Val-oxazolone) | self-aminoacylation (biotinyl-Leu-oxazolone) | self-aminoacylation (biotinyl-Met-oxazolone) |
| --- | --- | --- | --- | --- | --- |
| CUACUUCAAUCAAUCGGUCCG [Fam1A.1 aminoacylation ribozyme variant] | 0.917 | – | 0.876 | 1.2 | 0.762 |
| CUACUUCAGACAAUCGUUCUG [Fam1A.1 aminoacylation ribozyme variant] | 0.59 | – | 0.659 | 0.512 | 0.477 |
| CUACUUGAAACAAUCGGCCUG [Fam1A.1 aminoacylation ribozyme variant] | 1.84 | – | 1.68 | 1.45 | 1.96 |
| CUAGUUCAAACAAUCGCUCUG [Fam1A.1 aminoacylation ribozyme variant] | 0.832 | – | 0.934 | 0.798 | 0.827 |
| CUAGUUCAAACAAUCGGUCGG [Fam1A.1 aminoacylation ribozyme variant] | 1.02 | – | 0.952 | 1.06 | 1.2 |
| CUAGUUCAAUCAAUCGGUCUG [Fam1A.1 aminoacylation ribozyme variant] | 0.812 | – | 0.91 | 0.924 | 0.767 |
| CUAGUUCACACAAUCGGUCUG [Fam1A.1 aminoacylation ribozyme variant] | 1.28 | – | 1.14 | 1.36 | 1.13 |
| CUCCUUCAAACAAUCAGUCUG [Fam1A.1 aminoacylation ribozyme variant] | 0.75 | – | 0.837 | 0.753 | 0.655 |
| CUCCUUCAAACAAUCGGUCCG [Fam1A.1 aminoacylation ribozyme variant] | 0.861 | – | 0.846 | 1.38 | 0.945 |
| CUCCUUCAAACAAUCGGUCUU [Fam1A.1 aminoacylation ribozyme variant] | 1.13 | – | 1.25 | 1.62 | 1.26 |
| CUCCUUCAAACAAUCGGUGUG [Fam1A.1 aminoacylation ribozyme variant] | 1.06 | – | 1.14 | 1.49 | 1.17 |
| CUGCUUCAAACAAUCGGUCAG [Fam1A.1 aminoacylation ribozyme variant] | 0.975 | – | 1.24 | 1.47 | 1.08 |
| CUGCUUCCAACAAUCGGUCUG [Fam1A.1 aminoacylation ribozyme variant] | 0.634 | – | 0.691 | 0.73 | 0.737 |
| CUUCACCUAGGACAUCGGGUG [Fam2.2 aminoacylation ribozyme variant] | 2.34 | – | 2.68 | 3.53 | 3.03 |
| CUUCUUCAAACAAUCGGUCUA [Fam1A.1 aminoacylation ribozyme variant] | 0.776 | – | 0.802 | 0.721 | 0.747 |
| CUUCUUCAAUCAAUCGGUCUG [Fam1A.1 aminoacylation ribozyme variant] | 0.975 | – | 0.956 | 1.21 | 0.986 |
| GUACUUCAAACAAUCGGUCCG [Fam1A.1 aminoacylation ribozyme variant] | 1.38 | – | 1.24 | 1.68 | 1.39 |
| GUACUUCAAACAAUCGGUCUC [Fam1A.1 aminoacylation ribozyme variant] | 1.5 | – | 1.4 | 2.06 | 1.65 |
| UAGUUUGCUAACAGUCGCAAG [Fam3.1 aminoacylation ribozyme variant] | 1.78 | – | 1.62 | 1.35 | 1.5 |
| UCACACUUCAAGUAAUCGGUC [Fam1B.1 aminoacylation ribozyme variant] | 0.924 | – | 0.901 | 0.895 | 0.755 |
| UCACUCUUCAAGCAAUCGGUC [Fam1B.1 aminoacylation ribozyme variant] | 0.912 | – | 1.19 | 1.36 | 0.916 |
| UCACUUCAAACAAUCGGUCUG [Fam1A.1 aminoacylation ribozyme variant] | 1.4 | – | 1.36 | 2.11 | 1.52 |
| UUACUUCAACCAAUCGGUCUG [Fam1A.1 aminoacylation ribozyme variant] | 1.31 | – | 1.19 | 1.42 | 1.16 |
| UUUCUUCAAACAAUCGGUCUG [Fam1A.1 aminoacylation ribozyme variant] | 0.981 | – | 0.864 | 1.05 | 1.17 |
